Measured values reported in paper PMC7819943, “Rice protein-binding microarrays: a tool to detect cis-acting elements near promoter regions in rice”.
Some of the results follow.

Each sequence was assayed against T1, OsSMF1 (Oryza sativa, UniProt Q6ZLB0 1-436) (assay: protein-binding microarray (RPBM); PBS, 2% BSA, 51.3 ng/ul salmon testes DNA, 50 uM zinc acetate, 200 nM TF, 25 C, 1 h; high values mean tight binding). Details: protein: recombinant; tags: N-terminal polyhistidine and DsRed monomer fusion (pET32a); chain copies: 2; label: CyDye5-dUTP incorporated in the synthesized complementary strand; 3' TTTTT single-stranded linker to array surface; dsDNA, one strand shown.
T1 sequence: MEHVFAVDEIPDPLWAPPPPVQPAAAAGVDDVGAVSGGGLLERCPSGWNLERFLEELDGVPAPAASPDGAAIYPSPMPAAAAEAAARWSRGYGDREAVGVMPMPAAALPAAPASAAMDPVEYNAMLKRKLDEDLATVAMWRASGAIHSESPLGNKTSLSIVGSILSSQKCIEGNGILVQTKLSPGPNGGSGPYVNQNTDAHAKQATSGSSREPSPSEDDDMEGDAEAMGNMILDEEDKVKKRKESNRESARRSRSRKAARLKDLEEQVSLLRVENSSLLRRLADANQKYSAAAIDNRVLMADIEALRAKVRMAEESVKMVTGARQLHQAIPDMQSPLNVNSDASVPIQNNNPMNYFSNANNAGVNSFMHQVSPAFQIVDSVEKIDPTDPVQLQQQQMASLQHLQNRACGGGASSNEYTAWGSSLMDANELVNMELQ
Outline: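 Binding signal here means per-feature fluorescence intensity in arbitrary units. The values were read on an Axon 4000B scanner after a custom Agilent array, double-stranded by primer extension with Cy5-dUTP, was incubated with 200 nM protein at 25 °C for 1 h in PBS with 2% BSA, salmon testes DNA and 50 µM zinc acetate, then washed. The proteins were transcription factors with an N-terminal polyhistidine tag and DsRed, expressed in E. coli BL21-CodonPlus and purified on Ni–NTA.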

Sequence	binding signal
AGGTAAGTGTGTTGTGTGTGTGAGGATGCAGCATGCTTACCGGAGTCACCTAGTGCAG	4190 fluorescence intensity (a.u.)
TTCCCGTCCGAGCATTTGGCACGTATTAGTGACACTAACTCGGAGTCACCTAGTGCAG	4130 fluorescence intensity (a.u.)
AGGATTCAATTTGGACTTTGGTGGAGGGGAGGGGCTGCTGCGGAGTCACCTAGTGCAG	8930 fluorescence intensity (a.u.)
CACAGGGCCGTGCACCGCCTGAGTCATGCCACACAGTGCCCGGAGTCACCTAGTGCAG	7290 fluorescence intensity (a.u.)
AGCCGTCTCAGCCCCGGCGCCGTCATCTTCCGTCTTAGCCCGGAGTCACCTAGTGCAG	4410 fluorescence intensity (a.u.)
ATATGCACGCACCGTGCAGTAACAGTAGTAAGTAGAGGGACGGAGTCACCTAGTGCAG	38200 fluorescence intensity (a.u.)
AGCTTCGGAGGCTGTACACGTAATGTGGTCGCTTGTTTGTCGGAGTCACCTAGTGCAG	9220 fluorescence intensity (a.u.)
GTGTTTGTGACGACACGACACCACACGAGAGGAGAGAGAGCGGAGTCACCTAGTGCAG	4330 fluorescence intensity (a.u.)
CGAAGCATAGGCACACCGCACACGTGTACACCGGACGTGCCGGAGTCACCTAGTGCAG	16900 fluorescence intensity (a.u.)
TTTGATGACCGGGCTACCACGTCAGCATACCTAAACCAAACGGAGTCACCTAGTGCAG	13800 fluorescence intensity (a.u.)
AATACCTTACCTGTGTACAAAGTGTACAACCCAAGCCCACCGGAGTCACCTAGTGCAG	3490 fluorescence intensity (a.u.)
GATGGGCTTCCTCAACGGCCCAAGTCACCCAGATGGGCCTCGGAGTCACCTAGTGCAG	3900 fluorescence intensity (a.u.)
TTCTCCTTCTCCCACGTCCTCTCTCTCCCTGACCCTGAGCCGGAGTCACCTAGTGCAG	7180 fluorescence intensity (a.u.)
TACCTCATCGGCGATCGGCCTTGCCCGCCTTGTCCAACCTCGGAGTCACCTAGTGCAG	3520 fluorescence intensity (a.u.)
GATGCATGATGTCTATAATTATACCACATGCGAGTAAGCACGGAGTCACCTAGTGCAG	3770 fluorescence intensity (a.u.)
GGTCCATTTCCATATAGAAATATAGATGAGATGTACATATCGGAGTCACCTAGTGCAG	21700 fluorescence intensity (a.u.)
TTACAGCTCACTCCTCTCCTCTCCTGACATGTACACACCCCGGAGTCACCTAGTGCAG	4700 fluorescence intensity (a.u.)
ACTGTGCCATACTACCTTCCGCGGGTGCACAAGCACACCTCGGAGTCACCTAGTGCAG	3510 fluorescence intensity (a.u.)
TGCCTGATGTAACCACACGTGGCATTGTAAACCATGCAAACGGAGTCACCTAGTGCAG	9460 fluorescence intensity (a.u.)
AAAATCGGTGCAATTTTCCGACACGTGCGAAAGACCTAAACGGAGTCACCTAGTGCAG	3750 fluorescence intensity (a.u.)
CGAACCGCACGTGCGCGCGCGCTCCACGCACACCCCAAACCGGAGTCACCTAGTGCAG	4700 fluorescence intensity (a.u.)
CACCTCAGCTCGCCAGCAGCAACCACGGCGGCGCTTCGGACGGAGTCACCTAGTGCAG	14400 fluorescence intensity (a.u.)
GTGGCAAATAGTTAAAAGCCACCGAAACTGAGACAGCTACCGGAGTCACCTAGTGCAG	3600 fluorescence intensity (a.u.)
TTTATGCACGTTTGAGTTTGTGTACATACGACATTGATCACGGAGTCACCTAGTGCAG	3820 fluorescence intensity (a.u.)
TAATAATTCCTACTCCTACATGGCTATATACTACTCCGGACGGAGTCACCTAGTGCAG	3230 fluorescence intensity (a.u.)
TAGAGAAACCGGGTCACCAATGATGCCACGCATCGCTGCCCGGAGTCACCTAGTGCAG	5820 fluorescence intensity (a.u.)
GGGAGGAAGAAGAAAGGGAGAGAGAGGGGATGACATGTGGCGGAGTCACCTAGTGCAG	5680 fluorescence intensity (a.u.)

An excerpt of these results, in markdown:

| Sequence | binding signal |
| --- | --- |
| AGGTAAGTGTGTTGTGTGTGTGAGGATGCAGCATGCTTACCGGAGTCACCTAGTGCAG | 4190 fluorescence intensity (a.u.) |
| TAGAGAAACCGGGTCACCAATGATGCCACGCATCGCTGCCCGGAGTCACCTAGTGCAG | 5820 fluorescence intensity (a.u.) |

The listing continues:

Sequence	binding signal
TATGGGTGGTTTCGCTAACGTGGCAGGGGAGGGCGGCGACCGGAGTCACCTAGTGCAG	4900 fluorescence intensity (a.u.)
GATTAGTGGGCCCATTTATAGGTAATGACATGTATGTTTTCGGAGTCACCTAGTGCAG	4230 fluorescence intensity (a.u.)
CTTCGCTCCGTCGCCGCTCGCCCTTCTCTCCTGGCAATGTCGGAGTCACCTAGTGCAG	34000 fluorescence intensity (a.u.)
GCTCAGATCTCTGAATCCACGTGCTCCCCTCCACTGACCCCGGAGTCACCTAGTGCAG	5300 fluorescence intensity (a.u.)
GATGGCAAGTAAGTGCACACTCAGCTTTCTTCACTTCATTCGGAGTCACCTAGTGCAG	3280 fluorescence intensity (a.u.)
GGCCCGGCTCCTCCTCCTAACGTGGCGGCATGGCGCCATGCGGAGTCACCTAGTGCAG	6010 fluorescence intensity (a.u.)
CACGTCATCGACACGATAGTGACGGAGCACCGCAAGCTCTCGGAGTCACCTAGTGCAG	6570 fluorescence intensity (a.u.)
TAAGTCAACCTTGCGTCCCCTGTGCAGGCCACAGTCTGATCGGAGTCACCTAGTGCAG	22300 fluorescence intensity (a.u.)
TCATAAACCGTGGCTATCTCGCGTCAGCGTGCATGCTTAACGGAGTCACCTAGTGCAG	3660 fluorescence intensity (a.u.)
GGTGATTGCATTTGCTGATGTCAGGTATGCCTATTATATTCGGAGTCACCTAGTGCAG	14700 fluorescence intensity (a.u.)
GTAGAAGTCTGTATCGTCATGCGTCAACATATCATGATATCGGAGTCACCTAGTGCAG	4460 fluorescence intensity (a.u.)
GCATCACGACAGGCCTTCTCTAGCTCCTGCCACGCATGCCCGGAGTCACCTAGTGCAG	4770 fluorescence intensity (a.u.)
GTGGTTTTGGGAGTTGAGGGATAGGTTATACCCGATTTTACGGAGTCACCTAGTGCAG	11700 fluorescence intensity (a.u.)
ACCGATAGGTGTGACACGTCCCCGTCGCCAAGCGCCACCACGGAGTCACCTAGTGCAG	8250 fluorescence intensity (a.u.)
AGAAATCTGTTGCCTAGTGCACCGTAACCTGATTGATAATCGGAGTCACCTAGTGCAG	3570 fluorescence intensity (a.u.)
AAACTGGCACTAACATGAATTAGTTTCGTCAGCGAAATTCCGGAGTCACCTAGTGCAG	4280 fluorescence intensity (a.u.)
TCTCACCGAGCTTCTTGGAGAGTAAGAAACTGTGATTCTACGGAGTCACCTAGTGCAG	29700 fluorescence intensity (a.u.)
AGATCTTAACTAAAATTCTTTCAGATCAATGTGATTCACGCGGAGTCACCTAGTGCAG	3540 fluorescence intensity (a.u.)
TTCCTCTTCACGTGACTGACATGTGGGCCCCACTCAGCCTCGGAGTCACCTAGTGCAG	3600 fluorescence intensity (a.u.)
ACGGCGACCACCGCCTCACCAACCCACGCAACCAATGCCACGGAGTCACCTAGTGCAG	3750 fluorescence intensity (a.u.)
CCATGACGGCGCGCGCGGCCCAGAGGTCATCGAACCGCCCCGGAGTCACCTAGTGCAG	3730 fluorescence intensity (a.u.)
GCTATCCTACGTGGTGAGCCGTGGCCATGCTCCACGTAGGCGGAGTCACCTAGTGCAG	8960 fluorescence intensity (a.u.)
GACGCGCACTTGCGCCACGAGAACGTGCCACGTCACGTGTCGGAGTCACCTAGTGCAG	28300 fluorescence intensity (a.u.)
CTACCGCCACGCCTTCGCCACCATCTCCATCGCACCCTTCCGGAGTCACCTAGTGCAG	3180 fluorescence intensity (a.u.)
AAACTGGAGACGCCAACACCGTGGTCATCGACGACCTCTTCGGAGTCACCTAGTGCAG	3270 fluorescence intensity (a.u.)
TTTAAAGGACTTAAATCTATTTGGTCCTCCGGGGCTGAATCGGAGTCACCTAGTGCAG	3140 fluorescence intensity (a.u.)
CGCCCGCCTGCGCGTCATCACCCTACTCCGTCGTCGCTCGCGGAGTCACCTAGTGCAG	10300 fluorescence intensity (a.u.)
